Source: the supplement of paper PMC10849652
This is one part of the list.

The chains behind the UniProt entries cited, without tags or fusion partners. Where a name states a change or a piece, a line headed by the entry shows the natural chain unless it says otherwise.
UniProt P55786: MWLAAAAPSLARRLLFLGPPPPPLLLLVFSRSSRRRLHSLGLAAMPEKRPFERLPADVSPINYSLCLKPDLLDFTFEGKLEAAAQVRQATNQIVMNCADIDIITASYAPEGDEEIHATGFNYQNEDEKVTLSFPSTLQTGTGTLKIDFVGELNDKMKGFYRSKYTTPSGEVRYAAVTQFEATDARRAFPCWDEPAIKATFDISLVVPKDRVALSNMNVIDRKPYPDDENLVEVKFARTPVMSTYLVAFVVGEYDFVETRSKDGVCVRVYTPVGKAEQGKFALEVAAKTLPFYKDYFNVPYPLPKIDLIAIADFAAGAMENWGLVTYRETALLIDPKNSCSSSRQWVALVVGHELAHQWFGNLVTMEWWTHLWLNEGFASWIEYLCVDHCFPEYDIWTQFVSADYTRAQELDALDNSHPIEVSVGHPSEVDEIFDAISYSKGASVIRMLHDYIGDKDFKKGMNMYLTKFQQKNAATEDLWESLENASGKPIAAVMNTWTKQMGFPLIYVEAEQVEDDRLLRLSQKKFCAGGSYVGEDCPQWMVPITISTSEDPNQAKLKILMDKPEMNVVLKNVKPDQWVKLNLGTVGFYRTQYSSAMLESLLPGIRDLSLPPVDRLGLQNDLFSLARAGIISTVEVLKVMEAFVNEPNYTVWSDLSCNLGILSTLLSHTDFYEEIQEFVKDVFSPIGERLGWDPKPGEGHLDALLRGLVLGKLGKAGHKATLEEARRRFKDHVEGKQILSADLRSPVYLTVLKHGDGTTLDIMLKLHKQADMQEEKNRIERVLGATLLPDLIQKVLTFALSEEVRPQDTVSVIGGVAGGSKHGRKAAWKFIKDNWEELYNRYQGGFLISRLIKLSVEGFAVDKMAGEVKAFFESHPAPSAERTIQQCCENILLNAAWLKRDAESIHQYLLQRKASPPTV
UniProt O15118: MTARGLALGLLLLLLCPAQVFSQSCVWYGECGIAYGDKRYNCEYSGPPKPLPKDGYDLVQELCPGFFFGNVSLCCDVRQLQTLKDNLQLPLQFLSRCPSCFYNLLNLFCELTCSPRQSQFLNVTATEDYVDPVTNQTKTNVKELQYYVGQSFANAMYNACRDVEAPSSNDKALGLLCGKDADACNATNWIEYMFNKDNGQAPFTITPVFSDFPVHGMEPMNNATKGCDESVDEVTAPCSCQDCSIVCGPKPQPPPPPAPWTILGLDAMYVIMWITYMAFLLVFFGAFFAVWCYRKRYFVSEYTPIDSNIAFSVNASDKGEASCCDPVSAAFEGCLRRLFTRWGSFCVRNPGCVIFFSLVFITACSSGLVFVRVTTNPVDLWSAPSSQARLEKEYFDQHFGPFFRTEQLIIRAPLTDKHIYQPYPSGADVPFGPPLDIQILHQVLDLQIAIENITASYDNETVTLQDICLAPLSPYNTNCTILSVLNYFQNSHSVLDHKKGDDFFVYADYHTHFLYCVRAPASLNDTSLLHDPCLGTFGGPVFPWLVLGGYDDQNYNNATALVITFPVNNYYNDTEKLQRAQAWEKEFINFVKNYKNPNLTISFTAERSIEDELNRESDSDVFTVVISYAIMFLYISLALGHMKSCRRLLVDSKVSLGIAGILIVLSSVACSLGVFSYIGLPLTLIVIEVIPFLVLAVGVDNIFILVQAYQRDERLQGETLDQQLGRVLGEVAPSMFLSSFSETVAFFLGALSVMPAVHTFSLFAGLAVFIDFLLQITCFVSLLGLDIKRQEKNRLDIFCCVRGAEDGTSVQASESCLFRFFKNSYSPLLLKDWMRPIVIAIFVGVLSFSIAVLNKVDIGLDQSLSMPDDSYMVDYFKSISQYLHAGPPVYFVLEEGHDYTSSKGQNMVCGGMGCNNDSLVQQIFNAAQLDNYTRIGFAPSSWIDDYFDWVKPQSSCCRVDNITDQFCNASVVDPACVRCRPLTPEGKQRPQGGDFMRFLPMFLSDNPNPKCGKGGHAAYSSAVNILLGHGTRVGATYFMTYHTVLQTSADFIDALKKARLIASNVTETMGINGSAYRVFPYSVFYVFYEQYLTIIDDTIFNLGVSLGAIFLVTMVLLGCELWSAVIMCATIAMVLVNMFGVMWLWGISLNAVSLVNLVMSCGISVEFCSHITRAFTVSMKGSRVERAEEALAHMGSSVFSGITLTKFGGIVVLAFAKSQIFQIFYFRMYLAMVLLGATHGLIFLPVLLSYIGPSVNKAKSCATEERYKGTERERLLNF
UniProt Q9Y639: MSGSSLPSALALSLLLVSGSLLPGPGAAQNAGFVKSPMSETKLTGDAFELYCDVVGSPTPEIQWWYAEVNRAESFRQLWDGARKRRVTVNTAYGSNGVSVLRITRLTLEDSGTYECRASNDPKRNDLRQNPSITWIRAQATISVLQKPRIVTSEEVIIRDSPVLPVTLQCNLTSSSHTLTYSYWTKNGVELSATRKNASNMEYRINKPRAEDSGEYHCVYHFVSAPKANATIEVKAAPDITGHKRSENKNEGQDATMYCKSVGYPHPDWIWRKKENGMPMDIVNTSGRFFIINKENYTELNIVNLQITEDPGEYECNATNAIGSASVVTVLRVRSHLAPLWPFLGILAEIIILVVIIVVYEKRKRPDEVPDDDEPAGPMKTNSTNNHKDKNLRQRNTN
UniProt Q5SY16: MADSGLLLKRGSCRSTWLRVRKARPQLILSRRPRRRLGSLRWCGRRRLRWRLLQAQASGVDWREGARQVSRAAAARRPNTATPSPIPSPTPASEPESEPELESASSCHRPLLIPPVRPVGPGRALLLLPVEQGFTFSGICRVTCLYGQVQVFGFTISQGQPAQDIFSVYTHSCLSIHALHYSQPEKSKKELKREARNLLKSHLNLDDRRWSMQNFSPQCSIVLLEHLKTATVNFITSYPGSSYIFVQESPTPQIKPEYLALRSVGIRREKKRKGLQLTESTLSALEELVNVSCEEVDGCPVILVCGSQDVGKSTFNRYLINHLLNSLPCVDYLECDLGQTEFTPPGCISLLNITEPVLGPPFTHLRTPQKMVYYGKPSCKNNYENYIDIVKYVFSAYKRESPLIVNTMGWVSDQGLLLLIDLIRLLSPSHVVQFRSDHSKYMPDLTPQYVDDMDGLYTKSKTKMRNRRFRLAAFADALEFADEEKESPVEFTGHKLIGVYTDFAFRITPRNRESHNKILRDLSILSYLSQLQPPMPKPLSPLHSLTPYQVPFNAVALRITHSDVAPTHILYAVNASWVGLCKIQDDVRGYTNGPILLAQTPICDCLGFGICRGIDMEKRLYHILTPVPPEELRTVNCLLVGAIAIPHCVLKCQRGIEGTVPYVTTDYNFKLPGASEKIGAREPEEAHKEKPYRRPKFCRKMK
UniProt Q9Y6R0: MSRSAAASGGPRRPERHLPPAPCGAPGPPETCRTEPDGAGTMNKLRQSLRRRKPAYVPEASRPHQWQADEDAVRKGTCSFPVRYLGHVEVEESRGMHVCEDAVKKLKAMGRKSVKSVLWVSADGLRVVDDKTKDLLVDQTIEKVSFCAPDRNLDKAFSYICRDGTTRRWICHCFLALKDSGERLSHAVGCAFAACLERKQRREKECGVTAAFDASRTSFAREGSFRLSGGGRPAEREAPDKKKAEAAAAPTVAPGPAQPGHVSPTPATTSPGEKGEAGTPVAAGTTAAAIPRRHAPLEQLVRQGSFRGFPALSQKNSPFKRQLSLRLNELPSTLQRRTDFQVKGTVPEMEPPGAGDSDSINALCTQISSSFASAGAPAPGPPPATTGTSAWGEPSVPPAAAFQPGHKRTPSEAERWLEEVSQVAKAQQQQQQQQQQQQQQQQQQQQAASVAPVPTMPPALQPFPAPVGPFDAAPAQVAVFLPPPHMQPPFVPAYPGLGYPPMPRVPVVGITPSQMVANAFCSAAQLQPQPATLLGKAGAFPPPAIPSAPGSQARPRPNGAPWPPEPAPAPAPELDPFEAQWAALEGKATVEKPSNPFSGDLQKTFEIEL
UniProt Q9UMY1: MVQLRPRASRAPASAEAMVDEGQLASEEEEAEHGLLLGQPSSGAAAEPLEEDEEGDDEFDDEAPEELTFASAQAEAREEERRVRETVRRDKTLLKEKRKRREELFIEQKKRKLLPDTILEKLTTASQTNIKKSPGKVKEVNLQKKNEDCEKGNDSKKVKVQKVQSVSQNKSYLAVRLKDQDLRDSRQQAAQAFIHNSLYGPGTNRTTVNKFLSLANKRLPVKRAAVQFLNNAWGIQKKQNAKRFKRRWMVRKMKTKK
UniProt Q9Y2X3: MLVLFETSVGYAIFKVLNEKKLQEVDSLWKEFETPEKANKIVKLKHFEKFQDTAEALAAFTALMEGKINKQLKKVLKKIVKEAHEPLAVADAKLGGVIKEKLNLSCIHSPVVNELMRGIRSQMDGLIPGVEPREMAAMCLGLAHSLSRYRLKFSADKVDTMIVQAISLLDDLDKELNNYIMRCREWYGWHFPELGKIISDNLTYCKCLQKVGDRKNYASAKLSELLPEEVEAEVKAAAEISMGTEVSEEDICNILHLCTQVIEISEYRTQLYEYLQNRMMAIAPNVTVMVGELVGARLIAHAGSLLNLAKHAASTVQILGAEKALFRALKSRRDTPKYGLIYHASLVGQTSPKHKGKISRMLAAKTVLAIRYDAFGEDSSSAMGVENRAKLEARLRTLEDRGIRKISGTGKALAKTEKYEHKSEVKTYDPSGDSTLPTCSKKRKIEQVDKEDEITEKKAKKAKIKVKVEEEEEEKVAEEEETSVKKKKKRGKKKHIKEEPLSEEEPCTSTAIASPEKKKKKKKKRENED
UniProt P15559, whole entry, looked up: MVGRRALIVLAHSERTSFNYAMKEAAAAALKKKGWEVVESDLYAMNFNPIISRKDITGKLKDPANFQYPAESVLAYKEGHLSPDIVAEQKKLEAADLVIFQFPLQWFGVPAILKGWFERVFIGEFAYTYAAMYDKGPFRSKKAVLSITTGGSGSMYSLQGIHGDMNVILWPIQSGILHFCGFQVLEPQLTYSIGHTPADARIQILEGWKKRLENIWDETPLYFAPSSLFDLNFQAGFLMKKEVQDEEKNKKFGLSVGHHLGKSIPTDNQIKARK
UniProt Q15233: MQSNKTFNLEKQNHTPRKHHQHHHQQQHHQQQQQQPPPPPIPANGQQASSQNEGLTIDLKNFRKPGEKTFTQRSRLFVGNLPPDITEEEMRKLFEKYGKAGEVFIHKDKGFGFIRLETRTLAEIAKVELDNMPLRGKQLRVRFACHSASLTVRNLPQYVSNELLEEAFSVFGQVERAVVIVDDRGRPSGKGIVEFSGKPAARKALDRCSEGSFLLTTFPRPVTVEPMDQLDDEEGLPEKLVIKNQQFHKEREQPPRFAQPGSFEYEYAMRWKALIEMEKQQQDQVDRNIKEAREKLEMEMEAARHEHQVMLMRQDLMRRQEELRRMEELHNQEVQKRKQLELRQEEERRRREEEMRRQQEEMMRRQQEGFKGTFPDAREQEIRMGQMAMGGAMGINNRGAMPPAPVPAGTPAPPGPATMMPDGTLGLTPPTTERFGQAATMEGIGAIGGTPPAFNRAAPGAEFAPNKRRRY
UniProt Q9Y314: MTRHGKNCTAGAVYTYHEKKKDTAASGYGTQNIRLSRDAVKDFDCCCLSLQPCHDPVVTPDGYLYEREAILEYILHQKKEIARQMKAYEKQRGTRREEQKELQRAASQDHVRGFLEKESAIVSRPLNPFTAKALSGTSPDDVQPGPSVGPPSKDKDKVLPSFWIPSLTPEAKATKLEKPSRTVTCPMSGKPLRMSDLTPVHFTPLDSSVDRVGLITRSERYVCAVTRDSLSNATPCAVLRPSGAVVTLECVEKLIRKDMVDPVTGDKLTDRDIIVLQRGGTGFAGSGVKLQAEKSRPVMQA
UniProt O75414: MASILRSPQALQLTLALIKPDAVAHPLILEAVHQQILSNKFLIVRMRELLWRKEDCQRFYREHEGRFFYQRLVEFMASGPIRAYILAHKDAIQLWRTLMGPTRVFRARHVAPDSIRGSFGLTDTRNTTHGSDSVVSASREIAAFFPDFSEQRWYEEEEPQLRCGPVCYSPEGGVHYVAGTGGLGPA
UniProt O00567: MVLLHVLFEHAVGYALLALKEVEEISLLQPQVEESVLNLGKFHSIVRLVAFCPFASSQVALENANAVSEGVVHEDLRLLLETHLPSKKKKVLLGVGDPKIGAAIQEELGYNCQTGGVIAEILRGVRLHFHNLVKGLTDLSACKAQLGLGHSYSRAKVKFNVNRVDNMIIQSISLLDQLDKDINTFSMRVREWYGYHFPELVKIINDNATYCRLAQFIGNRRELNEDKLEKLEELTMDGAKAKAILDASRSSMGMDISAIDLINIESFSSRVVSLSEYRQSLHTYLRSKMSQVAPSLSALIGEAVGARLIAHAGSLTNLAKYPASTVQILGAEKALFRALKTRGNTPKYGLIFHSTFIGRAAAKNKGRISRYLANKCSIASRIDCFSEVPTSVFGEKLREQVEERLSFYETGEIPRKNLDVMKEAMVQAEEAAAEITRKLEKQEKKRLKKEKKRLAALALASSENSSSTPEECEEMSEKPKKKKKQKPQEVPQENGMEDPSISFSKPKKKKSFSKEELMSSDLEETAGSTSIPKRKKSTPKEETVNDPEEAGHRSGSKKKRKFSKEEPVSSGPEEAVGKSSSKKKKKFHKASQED

Tests used:
Test in all cases: log2 fold change, soluble protein after heating vs DMSO (PISA); higher = thermal stabilisation; K562 lysate, 10 uM; active = over 0.2 and 3.5 SD of the protein, either way, in both replicates (recomputed)
erlotinib = compound: C#Cc1cccc(Nc2ncnc3cc(OCCOC)c(OCCOC)cc23)c1 [erlotinib]
Summary of the method: (§1)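 Quantification was by TMTpro 16plex LC-MS/MS with equalised channel sums, applied to the supernatant after 21,000xg for 90 min. Samples were crude K562 extract at 1 mg/mL protein in PBS pH 7.4 with 1 mM MgCl2, treated with 10 μM compound for 30 min, heated for 3 min across 48°C-58°C, pooled and brought to 0.5% NP-40 at 4°C. Values are log-two fold changes in thermal stability relative to solvent controls, from duplicates.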

[1] = compound: C/C(=N\NC(=O)C1=CC(=CC=C1)S(=O)(=O)N2CCOCC2)/C3=C(C=CC(=C3)Cl)O
Summary of the method: as §1

[2] = compound: C1=CC(=CC=C1C2=NC3=C(N2)C=C(C=C3)C(=O)N)OC4=CC=C(C=C4)Cl
Summary of the method: as §1

[3] = compound: C1=CC2=C(C=CC(=C2)/C=C\3/C(=O)NC(=NCC4=CC=CS4)S3)N=C1
Summary of the method: as §1

[4] = compound: C1=CC2=NC=CN=C2C=C1/C=C/3\C(=O)NC(=O)S3
Summary of the method: as §1

[5] = compound: C1=CC=C(C=C1)C2=NC(=C(N2)C3=CC=NC=C3)C4=CC(=C(C=C4)Cl)O
Summary of the method: as §1

[6] = compound: C1=CC=C2C(=C1)C3=NNC4=CC=CC(=C43)C2=O
Summary of the method: as §1

[7] = compound: C1CCN(C1)C(=O)NC2=CC=CC(=C2)NC3=NC=C(C(=N3)NCCC4=CN=CN4)Br
Summary of the method: as §1

[8] = compound: C1CN(CCC1(CC2=CC=C(C=C2)Cl)N)C3=NC=NC4=C3C=CN4
Summary of the method: as §1

IRAK-1-4 Inhibitor I = compound: C1COCCN1CCN2C3=CC=CC=C3N=C2NC(=O)C4=CC(=CC=C4)[N+](=O)[O-] [IRAK-1-4 Inhibitor I]
Summary of the method: as §1

ibrutinib = compound: C=CC(=O)N1CCC[C@@H](n2nc(-c3ccc(Oc4ccccc4)cc3)c3c(N)ncnc32)C1 [ibrutinib]
Summary of the method: as §1

[9] = compound: CC(=O)c1cnc2ccc(-c3cc(Cl)c(O)c(Cl)c3)nc2c1N[C@H]1CC[C@H](CN(C)C)CC1
Summary of the method: as §1

ralimetinib = compound: CC(C)(C)Cn1c(N)nc2ccc(-c3[nH]c(C(C)(C)C)nc3-c3ccc(F)cc3)nc21 [ralimetinib]
Summary of the method: as §1

[10] = compound: CC(C)(O)CC(=O)NCCn1ccc2ncnc(Nc3ccc(Oc4cccc(C(F)(F)F)c4)c(Cl)c3)c21
Summary of the method: as §1

[11] = compound: CC(C)C1=C2N=C(C=C(N2N=C1)NCC3=CC=CC=C3)NCCCCCCN
Summary of the method: as §1

[12] = compound: CC1=C(C(CC(=O)N1)C2=CC=C(C=C2)C(F)(F)F)C(=O)NC3=C(C=C4C(=C3)C=NN4)F
Summary of the method: as §1

[13] = compound: CC1=C(C2=C(C=C1)C(=O)C3=CC=CC=C3N2CCCN)C
Summary of the method: as §1

[14] = compound: CC1=C(C=C(C=C1)NC(=O)C2=CC(=CC=C2)C(C)(C)C#N)NC3=CC4=C(C=C3)N=CN(C4=O)C
Summary of the method: as §1

[15] = compound: CC1=C(C=C(C=C1)NC(=O)C2=CC(=CC=C2)N(C)C)NC(=O)C3=CC=C(C=C3)O
Summary of the method: as §1

[16] = compound: CC1=CC=C(C=C1)SC2=C3C=C(SC3=CN=C2)C(=O)N
Summary of the method: as §1

| Target | log2 fold change (erlotinib) | log2 fold change [1] | log2 fold change [2] | log2 fold change [3] | log2 fold change [4] | log2 fold change [5] | log2 fold change [6] | log2 fold change [7] | log2 fold change [8] | log2 fold change (IRAK-1-4 Inhibitor I) | log2 fold change (ibrutinib) | log2 fold change [9] | log2 fold change (ralimetinib) | log2 fold change [10] | log2 fold change [11] | log2 fold change [12] | log2 fold change [13] | log2 fold change [14] | log2 fold change [15] | log2 fold change [16] |
| --- | --- | --- | --- | --- | --- | --- | --- | --- | --- | --- | --- | --- | --- | --- | --- | --- | --- | --- | --- | --- |
| NPEPPS (UniProt P55786) | inactive: 0.002 | inactive: -0.008 | inactive: 0.01 | inactive: -0.003 | inactive: -0.006 | inactive: 0.009 | inactive: 0.016 | inactive: 0.007 | inactive: 0.006 | inactive: 0.023 | inactive: 0.007 | inactive: -0.01 | inactive: -0.006 | inactive: -0.003 | inactive: -0.002 | inactive: -0.003 | inactive: 0.004 | inactive: 0.007 | inactive: 0.01 | inactive: -0.005 |
| NPC1 (UniProt O15118) | inactive: 0.003 | inactive: -0.03 | inactive: 0.014 | inactive: 0.014 | inactive: -0.004 | inactive: -0.02 | inactive: 0.038 | inactive: -0.009 | inactive: 0.043 | inactive: -0.008 | inactive: 0.01 | inactive: -0.011 | inactive: 0.011 | inactive: -0.035 | inactive: -0.004 | inactive: -0.005 | inactive: -0.021 | inactive: -0.013 | inactive: 0.008 | inactive: -0.052 |
| NPTN (UniProt Q9Y639) | inactive: -0.047 | inactive: -0.02 | inactive: -0.056 | active: -0.421 | inactive: 0.008 | inactive: 0.048 | inactive: 0.17 | inactive: -0.003 | inactive: 0.007 | inactive: 0.064 | inactive: 0.069 | inactive: 0.026 | inactive: 0.042 | inactive: -0.009 | inactive: 0.007 | inactive: -0.02 | inactive: -0.015 | inactive: 0.038 | inactive: 0.004 | inactive: -0.046 |
| NUBP2 (UniProt Q9Y5Y2) | inactive: -0.013 | inactive: -0.057 | inactive: 0.01 | inactive: 0.025 | inactive: 0.024 | inactive: -0.039 | inactive: 0.011 | inactive: -0.008 | inactive: -0.014 | inactive: 0.064 | inactive: 0 | inactive: 0.043 | inactive: -0.008 | inactive: -0.013 | inactive: 0.043 | inactive: 0.033 | inactive: 0.015 | inactive: 0.033 | inactive: 0.002 | inactive: 0.015 |
| NOL9 (UniProt Q5SY16) | inactive: 0.066 | inactive: 0.022 | inactive: -0.028 | inactive: 0.014 | inactive: 0.016 | inactive: -0.034 | inactive: -0.01 | inactive: -0.002 | inactive: 0.01 | inactive: 0.01 | inactive: -0.027 | inactive: -0.043 | inactive: 0.002 | inactive: 0.004 | inactive: 0.036 | inactive: 0.023 | inactive: -0.026 | inactive: -0.008 | inactive: 0.041 | inactive: -0.023 |
| NUMBL (UniProt Q9Y6R0) | inactive: 0.031 | inactive: 0.028 | inactive: 0.175 | inactive: -0.244 | inactive: -0.025 | inactive: -0.007 | inactive: -0.038 | inactive: -0.095 | inactive: -0.045 | inactive: -0.084 | inactive: 0.047 | inactive: -0.023 | inactive: -0.009 | inactive: 0.028 | inactive: 0.07 | inactive: 0.071 | inactive: -0.081 | inactive: 0.076 | inactive: 0.058 | inactive: -0.008 |
| NOL7 (UniProt Q9UMY1) | inactive: -0.055 | inactive: -0.026 | inactive: -0.028 | inactive: -0.008 | inactive: -0.087 | inactive: 0.045 | inactive: -0.012 | inactive: -0.013 | inactive: -0.034 | inactive: -0.042 | inactive: 0.069 | inactive: 0.02 | inactive: 0.042 | inactive: 0.064 | inactive: -0.003 | inactive: -0.026 | inactive: -0.028 | inactive: 0.087 | inactive: -0.064 | inactive: 0.041 |
| NOP58 (UniProt Q9Y2X3) | inactive: 0.021 | inactive: 0.059 | inactive: -0.006 | inactive: 0.035 | inactive: -0.008 | inactive: 0.036 | inactive: 0.042 | inactive: -0.008 | inactive: 0.006 | inactive: -0.028 | inactive: 0.003 | inactive: -0.007 | inactive: -0.03 | inactive: -0.018 | inactive: 0.004 | inactive: -0.003 | inactive: -0.027 | inactive: -0.009 | inactive: 0.006 | inactive: 0.015 |
| NOL6 (UniProt Q9H6R4) | inactive: -0.035 | inactive: 0.075 | inactive: -0.016 | inactive: -0.038 | inactive: 0.021 | inactive: -0.01 | inactive: 0 | inactive: 0.008 | inactive: 0.006 | inactive: -0.011 | inactive: 0.01 | inactive: 0.008 | inactive: 0.025 | inactive: -0.031 | inactive: 0.08 | inactive: -0.003 | inactive: 0.002 | inactive: 0.019 | inactive: 0.034 | inactive: 0.014 |
| NQO1 (UniProt P15559) | inactive: -0.033 | inactive: 0.081 | inactive: 0.055 | inactive: -0.08 | inactive: -0.02 | inactive: -0.022 | inactive: -0.192 | inactive: 0.005 | inactive: 0.006 | inactive: -0.017 | inactive: 0.009 | inactive: -0.003 | inactive: 0.033 | inactive: 0.081 | inactive: -0.009 | inactive: 0.001 | inactive: 0.159 | inactive: 0.038 | inactive: -0.025 | inactive: 0.067 |
| NUP155 (UniProt O75694) | inactive: -0.039 | inactive: 0.046 | inactive: 0.027 | inactive: -0.035 | inactive: -0.055 | inactive: -0.056 | inactive: -0.085 | inactive: 0.037 | inactive: 0.049 | inactive: -0.002 | inactive: -0.004 | inactive: -0.015 | inactive: 0.122 | inactive: -0.059 | inactive: -0.009 | inactive: 0.043 | inactive: -0.051 | inactive: -0.036 | inactive: 0 | inactive: -0.035 |
| NT5C3A (UniProt Q9H0P0) | inactive: 0.031 | inactive: 0.047 | inactive: -0.002 | inactive: 0.026 | inactive: 0.012 | inactive: -0.028 | inactive: 0.021 | inactive: 0.032 | inactive: 0.016 | inactive: -0.021 | inactive: -0.015 | inactive: -0.035 | inactive: -0.034 | inactive: -0.053 | inactive: 0.017 | inactive: -0.029 | inactive: 0.029 | inactive: 0.012 | inactive: -0.049 | inactive: -0.012 |
| NONO (UniProt Q15233) | inactive: 0.021 | inactive: -0.048 | inactive: 0 | inactive: -0.006 | inactive: -0.017 | inactive: 0.025 | inactive: -0.027 | inactive: 0.014 | inactive: 0.002 | inactive: 0.005 | inactive: -0.013 | inactive: 0.006 | inactive: 0.008 | inactive: -0.002 | inactive: 0.006 | inactive: -0.006 | inactive: -0.006 | inactive: -0.016 | inactive: 0.015 | inactive: 0.014 |
| NOSIP (UniProt Q9Y314) | inactive: 0.012 | inactive: -0.001 | inactive: 0.023 | inactive: 0.022 | inactive: 0.011 | inactive: 0.025 | inactive: -0.019 | inactive: 0.003 | inactive: 0.022 | inactive: 0.01 | inactive: 0.028 | inactive: 0.037 | inactive: 0 | inactive: 0.009 | inactive: -0.014 | inactive: -0.009 | inactive: 0 | inactive: 0.047 | inactive: 0.027 | inactive: -0.009 |
| NME6 (UniProt O75414) | inactive: -0.008 | inactive: -0.033 | inactive: 0.046 | inactive: -0.013 | inactive: 0.027 | inactive: -0.002 | inactive: 0.003 | inactive: -0.04 | inactive: 0.051 | inactive: -0.002 | inactive: 0.089 | inactive: 0.026 | inactive: 0.035 | inactive: -0.044 | inactive: -0.038 | inactive: -0.046 | inactive: -0.049 | inactive: 0.112 | inactive: -0.021 | inactive: -0.025 |
| NOP56 (UniProt O00567) | inactive: 0.016 | inactive: 0.024 | inactive: -0.023 | inactive: -0.014 | inactive: 0.01 | inactive: 0.045 | inactive: 0.054 | inactive: 0.009 | inactive: -0.052 | inactive: -0.037 | inactive: 0.043 | inactive: 0.017 | inactive: 0.018 | inactive: -0.013 | inactive: -0.009 | inactive: -0.009 | inactive: -0.026 | inactive: 0.006 | inactive: -0.004 | inactive: 0.022 |

Full records as entered above. Values in the order: log2 fold change (erlotinib) | log2 fold change [1] | log2 fold change [2] | log2 fold change [3] | log2 fold change [4] | log2 fold change [5] | log2 fold change [6] | log2 fold change [7] | log2 fold change [8] | log2 fold change (IRAK-1-4 Inhibitor I) | log2 fold change (ibrutinib) | log2 fold change [9] | log2 fold change (ralimetinib) | log2 fold change [10] | log2 fold change [11] | log2 fold change [12] | log2 fold change [13] | log2 fold change [14] | log2 fold change [15] | log2 fold change [16]
NOL9 (UniProt Q5SY16) as listed: inactive: 0.066 | inactive: 0.022 | inactive: -0.028 | inactive: 0.014 | inactive: 0.016 | inactive: -0.034 | inactive: -0.01 | inactive: -0.002 | inactive: 0.01 | inactive: 0.01 | inactive: -0.027 | inactive: -0.043 | inactive: 0.002 | inactive: 0.004 | inactive: 0.036 | inactive: 0.023 | inactive: -0.026 | inactive: -0.008 | inactive: 0.041 | inactive: -0.023
NOP58 (UniProt Q9Y2X3) as listed: inactive: 0.021 | inactive: 0.059 | inactive: -0.006 | inactive: 0.035 | inactive: -0.008 | inactive: 0.036 | inactive: 0.042 | inactive: -0.008 | inactive: 0.006 | inactive: -0.028 | inactive: 0.003 | inactive: -0.007 | inactive: -0.03 | inactive: -0.018 | inactive: 0.004 | inactive: -0.003 | inactive: -0.027 | inactive: -0.009 | inactive: 0.006 | inactive: 0.015
